In assay [1] the target is Myc3-iSH2-p110β (wild type) (bovine | human) (UniProt P23727+P42338). Description: co-IP; COS-1 cells co-transfected with FLAG-p85 and Myc-p110 or Myc-iSH2-p110; lysates immunoprecipitated with Myc antibody (control mouse IgG), SDS-PAGE, immunoblot. (In general: In western blotting, separated proteins are transferred to a membrane and probed.)
Assay [2] deals with Myc3-p110α (UniProt P42336). Described as above.
The target in assay [3] is Myc3-p110β (human) (UniProt P42338). Described as above.
Assay [4] has as its target T1, GST-Rab5 wild-type (canine) (UniProt P18066).
T1 sequence: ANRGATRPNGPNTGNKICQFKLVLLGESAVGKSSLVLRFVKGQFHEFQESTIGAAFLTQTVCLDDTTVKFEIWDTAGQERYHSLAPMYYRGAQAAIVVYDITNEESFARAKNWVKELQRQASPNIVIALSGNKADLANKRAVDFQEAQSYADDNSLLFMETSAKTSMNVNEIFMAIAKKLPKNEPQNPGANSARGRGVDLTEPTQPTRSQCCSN
The assay can be described thus: pull-down; GST-Rab5 on glutathione Sepharose beads loaded with GDP; incubated with transfected COS-1 lysate containing Myc-iSH2-p110; bound protein detected by anti-Myc immunoblot; only the target purified.

Sequences of proteins named here, by UniProt entry; tags and fusion partners are left off. A change or cut given only in a name is not applied to a line headed by its entry.
UniProt P23727: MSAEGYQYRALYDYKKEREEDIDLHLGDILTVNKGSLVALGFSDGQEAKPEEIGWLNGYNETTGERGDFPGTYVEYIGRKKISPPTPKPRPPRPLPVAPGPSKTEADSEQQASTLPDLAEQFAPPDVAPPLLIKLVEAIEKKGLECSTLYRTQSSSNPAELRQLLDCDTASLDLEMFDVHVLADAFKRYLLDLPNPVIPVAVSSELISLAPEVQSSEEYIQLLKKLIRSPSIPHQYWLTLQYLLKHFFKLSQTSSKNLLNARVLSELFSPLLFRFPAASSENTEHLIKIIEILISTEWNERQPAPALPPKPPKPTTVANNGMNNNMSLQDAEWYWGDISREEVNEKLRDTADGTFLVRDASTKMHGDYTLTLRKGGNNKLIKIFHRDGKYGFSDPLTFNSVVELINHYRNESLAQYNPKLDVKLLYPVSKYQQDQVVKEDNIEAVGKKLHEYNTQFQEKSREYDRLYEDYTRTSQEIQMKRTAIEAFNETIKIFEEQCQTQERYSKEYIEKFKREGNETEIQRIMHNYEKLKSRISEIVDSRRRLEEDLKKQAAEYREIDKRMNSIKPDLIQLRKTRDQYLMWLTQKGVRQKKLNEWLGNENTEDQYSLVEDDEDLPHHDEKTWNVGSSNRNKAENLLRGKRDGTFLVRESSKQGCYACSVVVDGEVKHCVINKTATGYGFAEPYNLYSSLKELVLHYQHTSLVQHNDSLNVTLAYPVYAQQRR
UniProt P42338: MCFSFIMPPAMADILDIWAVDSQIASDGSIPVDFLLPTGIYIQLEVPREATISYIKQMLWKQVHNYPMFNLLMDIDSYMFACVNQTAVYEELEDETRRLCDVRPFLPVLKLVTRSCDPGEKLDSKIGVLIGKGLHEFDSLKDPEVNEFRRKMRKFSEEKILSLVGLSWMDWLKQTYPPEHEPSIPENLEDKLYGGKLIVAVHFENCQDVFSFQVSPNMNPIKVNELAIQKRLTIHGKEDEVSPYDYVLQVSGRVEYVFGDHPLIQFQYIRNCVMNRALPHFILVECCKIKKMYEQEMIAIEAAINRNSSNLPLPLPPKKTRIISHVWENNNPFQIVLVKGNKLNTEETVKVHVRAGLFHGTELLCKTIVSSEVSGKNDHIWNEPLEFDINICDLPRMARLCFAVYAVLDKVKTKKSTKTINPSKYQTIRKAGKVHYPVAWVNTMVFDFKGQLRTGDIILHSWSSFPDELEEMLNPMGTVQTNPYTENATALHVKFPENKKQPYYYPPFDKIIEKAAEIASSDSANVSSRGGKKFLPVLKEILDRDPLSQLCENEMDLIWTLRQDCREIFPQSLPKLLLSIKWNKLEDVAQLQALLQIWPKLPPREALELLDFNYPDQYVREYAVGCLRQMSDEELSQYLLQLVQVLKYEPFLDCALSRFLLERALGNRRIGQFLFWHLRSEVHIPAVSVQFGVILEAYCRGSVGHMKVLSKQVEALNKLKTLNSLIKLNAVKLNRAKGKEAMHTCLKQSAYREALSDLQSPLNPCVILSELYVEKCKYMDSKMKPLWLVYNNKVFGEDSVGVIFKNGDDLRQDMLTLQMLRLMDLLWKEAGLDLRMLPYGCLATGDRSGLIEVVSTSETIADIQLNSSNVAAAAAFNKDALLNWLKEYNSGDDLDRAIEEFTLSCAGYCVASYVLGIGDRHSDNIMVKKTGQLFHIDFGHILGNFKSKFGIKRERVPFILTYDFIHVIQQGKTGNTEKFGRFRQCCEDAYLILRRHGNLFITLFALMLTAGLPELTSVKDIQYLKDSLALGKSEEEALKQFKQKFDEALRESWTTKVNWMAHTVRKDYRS
UniProt P42336: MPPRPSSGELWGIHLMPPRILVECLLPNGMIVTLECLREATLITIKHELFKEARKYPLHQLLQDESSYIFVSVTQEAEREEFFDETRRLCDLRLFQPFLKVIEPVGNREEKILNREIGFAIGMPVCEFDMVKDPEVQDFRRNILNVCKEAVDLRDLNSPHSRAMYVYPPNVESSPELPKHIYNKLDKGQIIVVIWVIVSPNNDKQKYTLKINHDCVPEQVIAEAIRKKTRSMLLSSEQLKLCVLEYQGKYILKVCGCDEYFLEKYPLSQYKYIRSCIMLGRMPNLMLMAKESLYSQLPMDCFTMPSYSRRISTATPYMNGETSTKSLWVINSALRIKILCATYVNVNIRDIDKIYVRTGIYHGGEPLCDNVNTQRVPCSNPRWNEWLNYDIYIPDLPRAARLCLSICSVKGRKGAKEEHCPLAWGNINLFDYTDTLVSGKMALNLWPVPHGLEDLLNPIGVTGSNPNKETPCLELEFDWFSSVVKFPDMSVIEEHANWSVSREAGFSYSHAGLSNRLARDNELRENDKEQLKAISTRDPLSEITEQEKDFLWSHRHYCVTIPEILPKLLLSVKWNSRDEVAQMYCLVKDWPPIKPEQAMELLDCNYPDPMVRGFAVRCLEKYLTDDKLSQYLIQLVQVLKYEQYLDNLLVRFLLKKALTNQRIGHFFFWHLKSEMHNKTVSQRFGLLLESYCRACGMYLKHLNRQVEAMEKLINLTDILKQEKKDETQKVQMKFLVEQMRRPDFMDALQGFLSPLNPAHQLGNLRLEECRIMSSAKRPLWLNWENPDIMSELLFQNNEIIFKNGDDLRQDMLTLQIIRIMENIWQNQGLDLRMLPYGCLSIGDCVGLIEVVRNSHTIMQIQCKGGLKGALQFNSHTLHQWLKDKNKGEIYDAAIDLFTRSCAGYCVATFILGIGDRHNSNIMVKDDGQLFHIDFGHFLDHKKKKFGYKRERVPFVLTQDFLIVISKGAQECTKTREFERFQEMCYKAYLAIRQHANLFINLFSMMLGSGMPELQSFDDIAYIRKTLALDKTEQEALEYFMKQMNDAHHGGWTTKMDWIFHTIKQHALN

Assay [5] addresses T2, GST-Rab5 E47A (canine) (UniProt P18066).
T2 sequence: T1 sequence with E46A
The assay can be described thus: pull-down; GST or GST-Rab5 (wild type or mutant, 10 µg) on glutathione Sepharose beads loaded with GppCp (non-hydrolysable GTP analogue); incubated with transfected COS-1 lysate containing Myc-iSH2-p110; bound protein detected by anti-Myc immunoblot; only the target purified.

Assay [6] deals with T3, GST-Rab5 H46A (canine) (UniProt P18066).
T3 sequence: T1 sequence with H45A
Described as above.

In assay [7] the target is T4, GST-Rab5 Q44E (canine) (UniProt P18066).
T4 sequence: T1 sequence with Q43E
The description is as above.

Assay [8] has as its target T5, GST-Rab5 S84A (canine) (UniProt P18066).
T5 sequence: T1 sequence with S83A
The assay is described as above.

The target of assay [9] is T1, GST-Rab5 wild-type (canine). The assay is described as above.

Substitutions are numbered along the chain they refer to. Results are given in words; binding and its absence hold for the method and conditions named. Binding seen in cells or lysates may run through a third protein. Some results given as binding are weak or reduced against the parent protein; the word gives no strength. For some assays here: Sequences can lack the tags named with a protein.

As for FLAG-p85α (from UniProt P23727 1-724), the figures for the binding result in assay [1], in [2] and in assay [3] were “binds weakly”, “binds” and “binds”, respectively.
Consider “Myc3-iSH2-p110β (wild type) (from UniProt P23727 466-567; P42338 1-1070)”, for which the binding entry in assay [4] is listed as “no binding (condition: GST-Rab5 loaded with GDP)”; in assay [5], “binds”; in assay [6] it was “binds”; in [7], “binds”; in assay [8] it was “binds”; in [9], “binds”.
On to “Myc3-iSH2-p110β D239R (from UniProt P23727 466-567; P42338 1-1070)”, for which, in assay [9], the binding entry was “binds”.
For “Myc3-iSH2-p110β L232A (from UniProt P23727 466-567; P42338 1-1070)”, the binding result in [9] was “binds”.

The record behind these values is PMC5700975.
